Screen size: about 350,000 compounds; about 220 (0.063%) were called active. Inconclusive means that the source gave no clear call. Such entries were picked first, then a sample of the others. Calls come from the whole dose curve; as a rule, active = well fitted activation curve with a large enough effect; inconclusive = small, poorly fitted or top-dose-only effect; inactive = no such curve, though single readings can be large or run the other way. Where the call is inconclusive, the potency comes from a doubtful curve fit.
assay: qHTS for Activators of Integrin-Mediated Alleviation for Muscular Dystrophy; conditions: alpha7betagal myoblasts, beta-gal FDG fluorescence, 48 h; series mostly up to 38.3 µM; note: nearly all actives have a fitted effect of over 60% in size
Summary of the method: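 alpha7betagal+/- myoblasts (passage 13, 250/well) treated 48 h at 37C with compounds at 1:260 dilution of DMSO stock. Lysed, then beta-galactosidase activity read as FDG fluorescence (ex 480/em 540) after 30 min, with pre-read for autofluorescence.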
Potency is the fitted concentration of half-maximal effect.

Potency, inactive:
CC(C)S(=O)(=O)CC(=O)c1ccc(Cl)cc1
COc1cccc(NC(=O)CN2CCN(S(=O)(=O)c3ccc(F)cc3)CC2)c1
C=CCn1c(O)c(N=NC(=O)c2ccc3c(c2)OCO3)c2ccccc21
Cc1ccc(N=c2ssnc2Cl)cc1
CCCNC1=C(N(C(C)=O)c2cccc(F)c2)C(=O)c2ccccc2C1=O
CC(NC(=O)Cc1cccc(C(F)(F)F)c1)c1ccc(F)cc1 (centres undefined)
COc1ccccc1-c1nnc(NC(=O)c2ccc(S(=O)(=O)N3CCCC3)cc2)o1
COc1ccc(N(CC(=O)NCc2ccc3c(c2)OCO3)C(=O)CCC(=O)Nc2ccccn2)cc1
Cc1ccc(NS(=O)(=O)c2cccc(C(=O)NCC(c3cccs3)N(C)C)c2)cc1 (centres undefined)
S=c1[nH]nc(COc2ccccc2)n1Cc1ccccc1
CN1CCN(Cc2cccc(Oc3ccc(Cl)cc3)c2)CC1
Cc1ccc(OCCOC(=O)CN2C(=O)NC3(CCCC3)C2=O)cc1
Cc1onc(-c2ccccc2)c1CNS(=O)(=O)c1ccccc1
CC(C)N(C(=S)Nc1cccc(C(F)(F)F)c1)C(C)c1ccccn1 (centres undefined)
CCOC(=O)C1=C(C)NC2=C(C(=O)CCC2)C1c1ccc(O)c(OCC)c1 (centres undefined)
COc1cc(CNc2ccc(N3CCCC3)cc2)cc(Cl)c1OC

Potency, inconclusive:
Cc1onc(-c2ccccc2)c1C(=O)N1CCCSC1=Nc1ccccc1 2.82 µM [activator, partial curve, poor fit]
Cc1ccc(CN2CCN(Cc3cnc(C)s3)CC2CCO)o1 (centres undefined) 5.01 µM [activator, single point]
O=C(CNC(=O)c1ccc(Br)cc1)N/N=C/c1cccnc1 5.01 µM [activator, single point]
CN(Cc1ccccc1)S(=O)(=O)c1ccc(N2CCCC2=O)cc1 0.501 µM [activator, partial curve, poor fit]
CN(C(=O)CSc1nnc(-c2ccncc2)n1-c1ccccc1)C1CCS(=O)(=O)C1 (centres undefined) 3.16 µM [activator, single point]
CC(C)C(C(=O)Nc1ccccc1F)N1C(=O)c2ccccc2C1=O (centres undefined) 2.82 µM [activator, single point]
CC(C)(CS(=O)(=O)[O-])NC(=O)CC[N+](C)(C)CCO 3.55 µM [activator, single point]
O=C(O)c1ccc(C2(c3ccc(C(=O)O)cc3)OC(=O)c3ccccc32)cc1 10 µM [activator, partial curve, poor fit]
COCc1c(C(=O)OCC(=O)N2c3ccccc3CC2C)oc2ccccc12 (centres undefined) 3.16 µM [activator, partial curve, poor fit]
Cc1ccc(S(=O)(=O)C2(C(=O)NCCc3ccccc3)CC2)cc1 28.2 µM [activator, single point]
Cc1cc(-c2cc(C)c(N)cc2C)c(C)cc1N 5.01 µM [activator, single point]
Cc1ccccc1N1CCN(C2CCCN(C(=O)c3cn4cccc(C)c4n3)C2)CC1 (centres undefined) 5.01 µM [activator, single point]
CCN(CC)CCCn1c(C)cc2c(c1=O)C(c1ccc(OC)c(OC)c1OC)C(C#N)=C(N)O2 (centres undefined) 3.16 µM [activator, partial curve, poor fit]
COc1ccc(/C=N/NC(=O)c2ccc(OC)c(OC)c2)cc1COc1c(F)c(F)c(F)c(F)c1F 5.01 µM [activator, single point]
CC(C)(O)C#Cc1ccc(CN2CCN(C3CCCC3)C(CCO)C2)cc1 (centres undefined) 10 µM [activator, single point]
CC1CCCN(S(=O)(=O)c2ccc(NC(=O)C3CC(=O)N(C(C)(C)C)C3)cc2)C1 (centres undefined) 0.891 µM [activator, full curve, poor fit]
CCOc1ccc(CNc2nnnn2C)cc1 0.447 µM [activator, partial curve, poor fit]
O=S(=O)(NCCNS(=O)(=O)c1cccs1)c1cccs1 3.98 µM [activator, partial curve, poor fit]
COc1cc(/C=N\NC(=O)c2ccc(-c3ccccc3)cc2)cc(OC)c1OC(C)=O 5.01 µM [activator, single point]
COc1ccc(CN(C)CC(=O)NC(C)c2ccccc2)cc1OC (centres undefined) 11.2 µM [activator, partial curve, poor fit]
COc1ccccc1CCC(=O)N(C)CC(=O)Nc1ccc(F)cc1 5.01 µM [activator, single point]
Cc1nn(CC(=O)OCC(=O)Nc2c(C(C)C)cccc2C(C)C)c(C)c1[N+](=O)[O-] 3.98 µM [activator, partial curve, poor fit]
COc1ccc(CNC(=O)C2CCCN(S(=O)(=O)N3CC(C)CC(C)C3)C2)c(OC)c1 (centres undefined) 3.55 µM [activator, single point]
O=C(Nc1cccc(S(=O)(=O)Nc2ccc(Cl)cc2)c1)c1ccc[n+]([O-])c1 2.51 µM [activator, partial curve, poor fit]
Cc1ccc2cc(CN(c3cccc(C)c3C)S(=O)(=O)c3ccccc3)c(=O)[nH]c2c1 5.01 µM [activator, single point]
CCOc1ccc2oc(C(=O)OCC(=O)NC3CCCC3)c(C)c2c1 5.01 µM [activator, partial curve, poor fit]
Cc1nnc(SCc2ccccn2)n(N)c1=O 1.26 µM [activator, full curve, poor fit]
CN(Cc1cnn(-c2ccccc2)c1)C(=O)C1CCC(=O)N(C2CC2)C1 (centres undefined) 28.2 µM [activator, single point]

Ordered by count of non-hydrogen atoms (low to high): some entries from above
Potency, inconclusive:
Cc1cc(-c2cc(C)c(N)cc2C)c(C)cc1N 5.01 µM [activator, single point]
O=C(CNC(=O)c1ccc(Br)cc1)N/N=C/c1cccnc1 5.01 µM [activator, single point]
CN(Cc1ccccc1)S(=O)(=O)c1ccc(N2CCCC2=O)cc1 0.501 µM [activator, partial curve, poor fit]
COc1ccc(CN(C)CC(=O)NC(C)c2ccccc2)cc1OC (centres undefined) 11.2 µM [activator, partial curve, poor fit]
Cc1onc(-c2ccccc2)c1C(=O)N1CCCSC1=Nc1ccccc1 2.82 µM [activator, partial curve, poor fit]
CN(C(=O)CSc1nnc(-c2ccncc2)n1-c1ccccc1)C1CCS(=O)(=O)C1 (centres undefined) 3.16 µM [activator, single point]
COc1cc(/C=N\NC(=O)c2ccc(-c3ccccc3)cc2)cc(OC)c1OC(C)=O 5.01 µM [activator, single point]

Reference: PubChem BioAssay AID624291 (National Center for Advancing Translational Sciences (NCATS), 2012)
